These are yes or no findings as the source states them, for the method shown. A result given as binding can be weak or reduced; the word gives no strength. Sequences can lack the tags named with a protein.
Target: HsiB1, bacterial two-hybrid fusion (P. aeruginosa PAO1) (UniProt Q9I749)
Test: two-hybrid; bacterial two-hybrid (BTH): T25 and T18 fusions of B. pertussis adenylate cyclase co-transformed in E. coli DHM1; spots on MacConkey maltose and X-gal LB agar, 30 °C, at least 48 h; β-galactosidase activity in Miller units

Protein sequences, listed by entry. Tags and fused reporters are not part of them. Lines headed by an entry give the natural chain unless they say otherwise; changes in a name come on top.
UniProt Q9I749: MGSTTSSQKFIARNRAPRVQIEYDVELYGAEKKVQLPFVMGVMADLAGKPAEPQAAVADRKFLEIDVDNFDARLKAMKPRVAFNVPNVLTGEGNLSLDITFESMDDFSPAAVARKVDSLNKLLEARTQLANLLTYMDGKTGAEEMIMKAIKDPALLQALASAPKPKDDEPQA

B1: HsiE1, bacterial two-hybrid fusion (protein, UniProt Q9I746 1-281)
chain: MADPSFASGRLGSRLQGSIAMIAEELLRAGRLDDALKALQEQVRSQPSNATLRIFLFQLLAVMGQWARAQNQLKVVGELDASALPMVQTYSTAIDCEALRREVFAGRLTPVILGQPAEWIAPLLQALSLDAEGHGEAAQALREQAFDAAPAVPGRIGEAPFAWLADADTRLGPVLEVIVNGRYAWLPMSNLRSLKVEAPSDLRDLVWLPAELTLANGGATVALLPARYAETVEHGDDAARLGRKTEWLDSGLPVGQRLFVTDAGETALFDLRELDFEPTDA
  binding: binds

Reference: paper PMC4239648
